In test [1] the target is RenU.6H, purified recombinant M. smegmatis RenU (added exogenously) (M. smegmatis). Put plainly: pull-down; exogenous RenU.6H added to M. smegmatis lysates and re-purified; blots with anti-L13 and anti-6H antibodies; 6H.SHMT as control; only the target purified.
The target is the same in test [2]. Put plainly: pull-down; only the target purified.

Results are given in words; binding and its absence hold for the method and conditions named. In cells and extracts the contact can be indirect. A result given as binding can be weak or reduced; the word gives no strength.

B1: 50S ribosomal protein L13 of M. smegmatis (endogenous) (protein, UniProt A0QSP8 1-147)
chain: MPTYTPKAGDTTRSWYVIDASDVVLGRLASAAATLLRGKHKPTFTPNVDGGDFVIVINADKIAVSGDKLTKKFAYRHSGYPGGLRKRTIGELLEKHPTRVVENAIIGMLPHNKLGRQIQKKLKVYAGPDHPHAAQQPIPFEIKQVAQ
For B1, the binding entry in test [1] was “binds”.

B2: L13 of M. smegmatis phosphorylated at T11 by PknG (endogenous) (protein, UniProt A0QSP8 1-147)
chain: MPTYTPKAGDTTRSWYVIDASDVVLGRLASAAATLLRGKHKPTFTPNVDGGDFVIVINADKIAVSGDKLTKKFAYRHSGYPGGLRKRTIGELLEKHPTRVVENAIIGMLPHNKLGRQIQKKLKVYAGPDHPHAAQQPIPFEIKQVAQ
modifications: phosphothreonine at 11
B2: in test [2], the binding entry is reported as “binds”.

Values taken from publication PMC4401782.
